Measured data: PubChem BioAssay AID1053208 (Peter MacCallum Cancer Centre, 2014)
Aim: 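Find knock-downs that sensitise mouse osteosarcoma cells to doxorubicin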 (primary screen). System: mouse osteosarcoma cells, early-passage culture from an engineered mouse model of fibroblastic bone tumour. Reagents: siRNA pool against mouse genes, 40 nM. Duration: about 120 h (48 h before drug, then 72 h with drug). Treatment: doxorubicin 100 nM for 72 h, roughly 30-40% inhibitory dose. Detection: 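Viability read as ATP luminescence after 72 h of 100 nM doxorubicin or none, duplicate wells averaged, scaled to non-targeting siRNA, then expressed as robust z-scores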. Scale: viability z-score with doxorubicin: higher = more viable cells under doxorubicin; viability z-score without drug: higher = more viable cells with knock-down alone. Active means: 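Called active if knock-down leaves viability unchanged without drug (z within -2 to 2) but lowers it with doxorubicin (z at or under -2)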.
In all, the deposit lists about 17,000 reagents; this is an unselected part. 788 of them (4.7%) were called active. 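Calls rest on z-score classes alone; an extra cut-off of viability at most 70% of control was not applied to them.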 Entries without a mark were called inactive. Not all columns of the deposit are shown.

Depletion of Lacc1 (GeneID 210808) resulted in: combined z-score class no change with or without drug; viability z-score with doxorubicin -0.9; viability z-score without drug -0.17.
Against Gsto1 (GeneID 14873), the entry reads combined z-score class no change with or without drug; viability z-score with doxorubicin 0.67; viability z-score without drug 0.84.
Against Mbl1 (GeneID 17194) the deposit lists combined z-score class no change with or without drug; viability z-score with doxorubicin 0.22; viability z-score without drug -0.17.
For Vps50 (GeneID 73288), the entry reads combined z-score class no change with or without drug; viability z-score with doxorubicin -1.35; viability z-score without drug 1.52.
Gpr3 (GeneID 14748) gave combined z-score class low cell count without drug only; viability z-score with doxorubicin -1.35; viability z-score without drug -2.02.
Fbxo6 (GeneID 50762) gave combined z-score class no change with or without drug; viability z-score with doxorubicin -0.22; viability z-score without drug -0.17.
Knock-down of Galc (GeneID 14420) gave: combined z-score class no change with or without drug; viability z-score with doxorubicin 1.12; viability z-score without drug 1.18.
Silencing of Mcpt8 (GeneID 17231) came out at: combined z-score class no change with or without drug; viability z-score with doxorubicin 0.67; viability z-score without drug 0.84.
For Babam2 (GeneID 107976) the deposit lists combined z-score class no change with or without drug; viability z-score with doxorubicin 0.22; viability z-score without drug 0.
After knock-down of Cpeb3 (GeneID 208922), the record shows combined z-score class no change with or without drug; viability z-score with doxorubicin -0.9; viability z-score without drug -0.17.
Nfkb1 (GeneID 18033) scored combined z-score class no change with or without drug; viability z-score with doxorubicin 0.67; viability z-score without drug 0.67.
For Dnajc15 (GeneID 66148), the entry reads combined z-score class no change with or without drug; viability z-score with doxorubicin -1.35; viability z-score without drug 0.84.

2 entries already listed, arranged by “viability z-score with doxorubicin”, highest first.
Mbl1 (GeneID 17194) → combined z-score class: no change with or without drug; viability z-score with doxorubicin: 0.22; viability z-score without drug: -0.17
Vps50 (GeneID 73288) → combined z-score class: no change with or without drug; viability z-score with doxorubicin: -1.35; viability z-score without drug: 1.52
